Results from patent publication US20220202943A1, “TOPICAL COMPOSITIONS FOR SKIN COMPRISING A CELL PENETRATING PEPTIDE AND METHODS OF USING THE SAME” (ImDerma Laboratories Co. Ltd., priority 2020, published 2022).
Not every detail of the peptide structures is certain; ends, links or a residue may be inferred. Where no end group is shown, it is not given here.

Legend:
HaCaT cells = assay: Intracellular ROS induced by H2O2 in HaCaT cells, DCFDA fluorescence assay; type: cell-based, human; settings: 1.0 μM peptide X alone; 1.2 mM H2O2
Procedure: Following the removal of DMEM medium in the 96-well plate, 100 uL of 1 μM peptide X and 100 uL of tea polyphenols (0.01%, 0.05% or 0.1%), were added in the 96-well plate. After 2, 4, 6, 16 or 24 hours of reaction, the peptide X and tea polyphenols were removed and then DMEM medium with 1.2 mM H2O2 was added for 2 hours of reaction in dark to induce intracellular ROS in the HaCaT cells. After the above reaction, DMEM medium with 1.2 mM H2O2 was removed from the 96-well plate and 100 μL of 10 μM DCFDA (2′,7′—dichlorofluorescin diacetate) was added for half an hour of reaction to measure the levels of intracellular ROS in HaCaT cells using fluorescence assay. Following the removal of DCFDA, the treated cells were washed with 200 μL of PBS. Subsequently, after PBS was removed, 100 μL of transparent DMEM medium was added and absorbance at 488/520 nm was measured to determinate the levels of intracellular ROS. After the above measurement, the transparent DMEM medium was removed and then 100 μL of 1 mg/mL MTT was added for 2 hours of reaction; subsequently, the absorbance at 595 nm was measured for calculating the cell viability.
EUK134™ (0.12 μM, 0.23 μM or 2.35 μM) or a mixture of peptide X (1 μM) and EUK134™ (0.12 μM or 0.23 μM), were added in HaCaT cells for 8 hours of reaction. […]

type I pro-collagen = assay: Type I pro-collagen level in Hs68 cells, ELISA; type: cell-based, human; settings: peptide X 1.0 μM alone, with extended reaction time (6, 12, 24 hours)
Procedure: In order to confirm if the peptide X is capable of delivering TGF-β into skin cells, Hs68 cells were seeded in a 6-well plate. Following the removal the medium in the 6-well plate, TGF-β (10 ng/mL), peptide X (1.0 μM) or a mixture of TGF-β (10 ng/mL) and peptide X (1.0 μM) were added in the 6-well plate. After 6, 12 or 24 hours of reaction, the level of type I pro-collagen in the cells was confirmed using ELISA kit with human pro-collagen 1 alpha 1 capture antibody and human pro-collagen 1 alpha 1 detector antibody.

## NYRWRCKNQN [peptide X, Asn-Tyr-Arg-Trp-Arg-Cys-Lys-Asn-Gln-Asn]
HaCaT cells
  levels of intracellular ROS induced by H2O2: not altered
Type I pro-collagen
  expression of type I pro-collagen: only increases slightly
